Assay results taken from article PMC11655529.
These are yes or no findings as the source states them, for the method shown. In cells and extracts the contact can be indirect. Some entries that bind do so weakly or less than the wild type.

Protein sequences, listed by entry. Tags and fused reporters are not part of them.
UniProt Q14457: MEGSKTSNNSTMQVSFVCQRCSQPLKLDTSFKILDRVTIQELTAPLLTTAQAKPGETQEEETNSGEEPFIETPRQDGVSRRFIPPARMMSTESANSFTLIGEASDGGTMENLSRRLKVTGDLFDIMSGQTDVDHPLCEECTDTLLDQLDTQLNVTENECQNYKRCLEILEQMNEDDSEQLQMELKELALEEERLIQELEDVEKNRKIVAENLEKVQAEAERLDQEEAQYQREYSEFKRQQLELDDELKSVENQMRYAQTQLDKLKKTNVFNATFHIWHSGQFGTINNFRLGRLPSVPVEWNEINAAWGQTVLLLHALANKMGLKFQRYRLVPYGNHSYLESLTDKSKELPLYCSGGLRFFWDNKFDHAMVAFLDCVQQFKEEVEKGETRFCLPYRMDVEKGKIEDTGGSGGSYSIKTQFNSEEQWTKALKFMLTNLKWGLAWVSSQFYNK
UniProt P10415: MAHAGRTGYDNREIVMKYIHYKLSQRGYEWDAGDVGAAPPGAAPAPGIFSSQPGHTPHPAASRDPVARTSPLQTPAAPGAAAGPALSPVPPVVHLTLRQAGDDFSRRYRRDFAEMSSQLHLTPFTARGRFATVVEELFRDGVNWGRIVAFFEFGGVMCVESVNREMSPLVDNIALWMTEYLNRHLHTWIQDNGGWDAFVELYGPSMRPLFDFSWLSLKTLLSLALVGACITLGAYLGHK

Tests used:
[1] = target: p62 (human (endogenous in ovarian cancer cells)) (UniProt Q13501); assay: co-IP; p62 antibody (IgG as control) on lysates of control and LOC730101-knockdown ovarian cancer cells treated with 10 µM cisplatin or 10 µM niraparib for 24 h; Western blot for p62 and RNF168
[2] = target: BECN1 (human (endogenous in ovarian cancer cells)) (UniProt Q14457); assay: co-IP; BECN1 antibody (IgG as control) on lysates of control, LOC730101-overexpressing and LOC730101-knockdown ovarian cancer cells treated with 10 µM cisplatin or 10 µM niraparib for 24 h; Western blot for BECN1, VPS34 and Bcl2

| Substance | binding [1] | binding [2] |
| --- | --- | --- |
| RNF168 (from UniProt Q8IYW5 1-571) | binds |  |
| Bcl2 (from UniProt P10415 1-239) |  | binds |
